Experimental findings from publication PMC4591814 are described below.

By UniProt entry, the sequences of proteins in these tests, tags left out.
UniProt P38398: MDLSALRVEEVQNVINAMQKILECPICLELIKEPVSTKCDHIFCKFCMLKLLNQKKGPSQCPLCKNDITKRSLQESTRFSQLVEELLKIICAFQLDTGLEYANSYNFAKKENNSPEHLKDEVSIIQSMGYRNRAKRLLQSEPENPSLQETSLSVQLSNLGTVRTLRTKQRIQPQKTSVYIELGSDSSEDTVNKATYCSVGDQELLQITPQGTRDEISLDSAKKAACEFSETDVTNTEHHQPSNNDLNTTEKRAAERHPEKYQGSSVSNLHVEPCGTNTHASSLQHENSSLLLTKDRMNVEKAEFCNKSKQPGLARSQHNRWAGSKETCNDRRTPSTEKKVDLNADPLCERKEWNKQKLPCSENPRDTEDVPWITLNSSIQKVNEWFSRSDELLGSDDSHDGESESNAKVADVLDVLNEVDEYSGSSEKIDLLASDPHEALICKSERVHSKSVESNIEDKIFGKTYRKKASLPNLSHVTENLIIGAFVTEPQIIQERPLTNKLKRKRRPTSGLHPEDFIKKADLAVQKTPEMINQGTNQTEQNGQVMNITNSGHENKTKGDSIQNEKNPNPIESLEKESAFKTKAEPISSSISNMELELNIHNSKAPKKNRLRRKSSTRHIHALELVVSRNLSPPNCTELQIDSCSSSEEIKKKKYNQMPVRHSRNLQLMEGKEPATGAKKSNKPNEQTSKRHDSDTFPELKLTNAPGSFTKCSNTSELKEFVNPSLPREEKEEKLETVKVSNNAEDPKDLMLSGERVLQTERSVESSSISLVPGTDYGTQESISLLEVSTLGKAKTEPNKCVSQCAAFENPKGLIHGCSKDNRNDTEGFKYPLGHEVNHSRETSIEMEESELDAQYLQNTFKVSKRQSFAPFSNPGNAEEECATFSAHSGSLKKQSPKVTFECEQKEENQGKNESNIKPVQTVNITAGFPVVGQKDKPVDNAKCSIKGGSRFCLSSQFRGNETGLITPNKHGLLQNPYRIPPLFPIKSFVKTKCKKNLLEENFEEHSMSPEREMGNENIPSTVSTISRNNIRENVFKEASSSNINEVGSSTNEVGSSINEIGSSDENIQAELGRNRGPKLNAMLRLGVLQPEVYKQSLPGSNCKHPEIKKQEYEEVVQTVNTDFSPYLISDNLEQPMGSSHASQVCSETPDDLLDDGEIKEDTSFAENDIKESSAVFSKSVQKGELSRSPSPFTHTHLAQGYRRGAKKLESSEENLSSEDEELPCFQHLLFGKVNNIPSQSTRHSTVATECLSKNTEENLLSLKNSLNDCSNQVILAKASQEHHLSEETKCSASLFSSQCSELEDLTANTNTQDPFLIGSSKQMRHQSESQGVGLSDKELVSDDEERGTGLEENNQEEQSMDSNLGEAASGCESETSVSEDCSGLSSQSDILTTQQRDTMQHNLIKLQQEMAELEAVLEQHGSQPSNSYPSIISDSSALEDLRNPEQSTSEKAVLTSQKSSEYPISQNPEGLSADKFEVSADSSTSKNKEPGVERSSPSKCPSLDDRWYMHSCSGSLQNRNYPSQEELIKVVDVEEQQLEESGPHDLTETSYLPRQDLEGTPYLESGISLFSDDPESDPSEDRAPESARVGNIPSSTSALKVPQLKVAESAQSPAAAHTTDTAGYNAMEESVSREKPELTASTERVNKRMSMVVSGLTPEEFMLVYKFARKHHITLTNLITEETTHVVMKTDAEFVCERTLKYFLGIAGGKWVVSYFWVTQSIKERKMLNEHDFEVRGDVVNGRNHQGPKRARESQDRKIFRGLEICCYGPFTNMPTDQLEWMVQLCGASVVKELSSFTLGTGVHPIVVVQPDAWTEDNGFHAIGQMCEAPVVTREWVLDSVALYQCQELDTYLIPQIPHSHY

No constants are given. Whether binding was seen depends on the method and setting. In cells and extracts the contact can be indirect. Some binding calls cover weakened binding; strength is not graded here. Where a sequence is shown, tags or fusion partners need not be part of it.

Experiment [1] deals with T1, FLAG-HA epitope-tagged FANCJ (human) (UniProt Q9BX63).
T1 sequence: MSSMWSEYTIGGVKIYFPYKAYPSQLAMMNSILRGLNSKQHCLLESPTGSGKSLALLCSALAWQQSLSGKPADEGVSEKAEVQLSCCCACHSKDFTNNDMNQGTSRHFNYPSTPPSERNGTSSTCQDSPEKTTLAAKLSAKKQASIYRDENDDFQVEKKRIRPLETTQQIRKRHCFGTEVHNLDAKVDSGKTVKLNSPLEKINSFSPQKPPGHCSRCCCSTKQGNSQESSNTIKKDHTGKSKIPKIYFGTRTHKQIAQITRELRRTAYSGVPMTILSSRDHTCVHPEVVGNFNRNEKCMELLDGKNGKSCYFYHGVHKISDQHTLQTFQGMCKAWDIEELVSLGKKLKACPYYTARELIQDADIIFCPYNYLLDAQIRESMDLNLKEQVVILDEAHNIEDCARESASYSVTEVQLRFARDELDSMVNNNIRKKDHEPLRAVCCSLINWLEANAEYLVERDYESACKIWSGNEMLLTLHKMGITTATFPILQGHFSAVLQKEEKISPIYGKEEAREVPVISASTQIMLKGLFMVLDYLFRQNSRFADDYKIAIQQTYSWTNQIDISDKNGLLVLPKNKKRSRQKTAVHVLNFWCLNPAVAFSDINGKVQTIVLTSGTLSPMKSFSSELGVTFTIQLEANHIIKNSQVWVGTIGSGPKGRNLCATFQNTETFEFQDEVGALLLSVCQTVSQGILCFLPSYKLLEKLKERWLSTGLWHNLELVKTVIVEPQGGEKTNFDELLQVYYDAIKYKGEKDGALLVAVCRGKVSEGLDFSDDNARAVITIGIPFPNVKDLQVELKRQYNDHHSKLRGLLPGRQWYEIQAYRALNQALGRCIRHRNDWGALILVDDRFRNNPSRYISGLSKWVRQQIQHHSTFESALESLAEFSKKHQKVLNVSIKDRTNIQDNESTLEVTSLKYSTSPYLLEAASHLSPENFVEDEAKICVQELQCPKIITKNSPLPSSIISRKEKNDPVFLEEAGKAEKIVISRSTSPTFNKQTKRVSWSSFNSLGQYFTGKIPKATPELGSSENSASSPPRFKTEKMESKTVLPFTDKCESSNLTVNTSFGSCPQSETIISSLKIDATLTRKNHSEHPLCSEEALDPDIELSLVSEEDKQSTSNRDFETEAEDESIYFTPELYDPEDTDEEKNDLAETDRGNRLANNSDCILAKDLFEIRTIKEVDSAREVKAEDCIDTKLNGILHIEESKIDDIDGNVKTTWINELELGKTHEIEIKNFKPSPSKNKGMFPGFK
In words: co-IP; V5-POLN coexpressed with FLAG-HA-tagged BRCA1 or FANCJ in 293T cells; whole-cell extract sonicated, incubated in the presence of benzonase; sequential anti-FLAG and anti-HA immunoprecipitation; POLN detected with anti-V5.

In experiment [2] the target is FLAG-HA epitope-tagged BRCA1 (human) (UniProt P38398). The description is as above.

B1: V5-tagged human POLN (enzyme, UniProt Q7Z5Q5 1-900)
chain: MENYEALVGFDLCNTPLSSVAQKIMSAMHSGDLVDSKTWGKSTETMEVINKSSVKYSVQLEDRKTQSPEKKDLKSLRSQTSRGSAKLSPQSFSVRLTDQLSADQKQKSISSLTLSSCLIPQYNQEASVLQKKGHKRKHFLMENINNENKGSINLKRKHITYNNLSEKTSKQMALEEDTDDAEGYLNSGNSGALKKHFCDIRHLDDWAKSQLIEMLKQAAALVITVMYTDGSTQLGADQTPVSSVRGIVVLVKRQAEGGHGCPDAPACGPVLEGFVSDDPCIYIQIEHSAIWDQEQEAHQQFARNVLFQTMKCKCPVICFNAKDFVRIVLQFFGNDGSWKHVADFIGLDPRIAAWLIDPSDATPSFEDLVEKYCEKSITVKVNSTYGNSSRNIVNQNVRENLKTLYRLTMDLCSKLKDYGLWQLFRTLELPLIPILAVMESHAIQVNKEEMEKTSALLGARLKELEQEAHFVAGERFLITSNNQLREILFGKLKLHLLSQRNSLPRTGLQKYPSTSEAVLNALRDLHPLPKIILEYRQVHKIKSTFVDGLLACMKKGSISSTWNQTGTVTGRLSAKHPNIQGISKHPIQITTPKNFKGKEDKILTISPRAMFVSSKGHTFLAADFSQIELRILTHLSGDPELLKLFQESERDDVFSTLTSQWKDVPVEQVTHADREQTKKVVYAVVYGAGKERLAACLGVPIQEAAQFLESFLQKYKKIKDFARAAIAQCHQTGCVVSIMGRRRPLPRIHAHDQQLRAQAERQAVNFVVQGSAADLCKLAMIHVFTAVAASHTLTARLVAQIHDELLFEVEDPQIPECAALVRRTMESLEQVQALELQLQVPLKVSLSAGRSWGHLVPLQEAWGPPPGPCRTESPSNSLAAPGSPASTQPPPLHFSPSFCL
As to B1, the binding result in experiment [1] and in experiment [2] was “binds” each time.
